Measured values published in PubChem BioAssay AID1508600 (Functional Genomics Laboratory (NCATS/FGL), 2020).
Hit rate of the full screen: of about 53,000 sequences, about 3,700 (7%) were called active.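 How the source made its calls: active means gene knockdowns whose robust z-score for IL-1 alpha signal is at least 2 or at most -2, so actives lie on both sides; inactive means the rest.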 The list shows a part of the results.

Experiment: Components of the Cytosolic LPS Sensing Pathway: Gene Identification via Genome-wide siRNA Screen;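 further: robust z of the log signal after scaling to non-targeting control siRNA wells of the plate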
Settings: RAW264.7 macrophages, IL-1a HTRF, actives lie on both sides, screened at 100 nM (by protocol), cells primed 5 h with Pam3CSK4 first
Summary of the method: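 Three distinct siRNAs per gene were tested singly at 100 nM in RAW264.7 macrophages. Following Pam3CSK4 priming and 24 hour LipidA transfection, IL-1a secretion was read by HTRF.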

Row | Sequence | z-score
1 | GGUGGACAACCAGUUCUACTT against Mapk10 | inactive: 1.27
2 | GGGUACAACUCUUUGAAGATT against Mnat1 | inactive: 0.535
3 | GCAACAGUGAAAUAGCACATT against Krit1 | inactive: 0.179
4 | GGUCAAAUCUCGACAAAUCTT against Ptprm | inactive: 0.0717
5 | GCAGAUUAACAUCUUCUUUTT against Dync1i2 | inactive: 1.45
6 | CCUACAGUAUGUGGCAGAUTT against Grb7 | inactive: -1.49
7 | GCGUAAUUCCAGCAGAUGUTT against Mepe | inactive: 1.74
8 | CGGACAUAGUCCAUCAUUCTT against Aig1 | inactive: 1.47
9 | GGAAAAGCAGAGAAGAUAUTT against Atrip | inactive: -1.7
10 | GCUAACAAGCUAGCAUUUATT against Ltv1 | inactive: -1.17
11 | GGAAAUGCCUAAUUUUCACTT against Snapc4 | inactive: 0.491
12 | GCCUCUAUAUCUUUCACUGTT against Olfr1209 | active: -2.16
13 | GGAAUUGCCAAUCAAUGAUTT against Gpr141b | inactive: -0.405
14 | GGUGGUCAUUUAUUCAUGUTT against Cd55b | inactive: -0.0607
15 | GCCCACUAUUAUCGAUAUGTT against Pcgf1 | inactive: 0.281
16 | GGUCAUAUCUCACCUAAGUTT against Nxph3 | inactive: -0.833
17 | GGACAAUUUUGACGAGAUGTT against Tubg1 | inactive: 0.238
18 | GCUAGCCAAAAAAAUCCGGTT against Cachd1 | inactive: -0.826
19 | GGUGAAAUGCUUGACUAAATT against Ube2f | inactive: 0.433
20 | GCAAUCAUUUCUUCAUCUATT against Olfr148 | inactive: 0.255
21 | CCCUCAUCAAGGGCAUAGATT against Gpd1l | inactive: -1.11
22 | GCCUUGACAGAGGUAUUGATT against Ovgp1 | inactive: -1.46

Row | Sequence | z-score
23 | GAAAAAUAUCCUGGCAGUGTT against Olfr824 | inactive: 0.656
24 | GGACUUCGGCACUGCUUAUTT against Prmt9 | inactive: -0.837
25 | GGUUGUAGGAGAGGAAGCCTT against Apobr | inactive: -0.572
26 | GCAGCCUUAUACUUCUCACTT against Gtdc1 | inactive: -0.702
27 | GCAUGCUGAGGGACACAGUTT against 1810055G02Rik | inactive: -1.6
28 | CCUGGUACAAUCAAACUGCTT against Rnf222 | inactive: 0.516
29 | GCCCUAGCAAAAUAUGUUUTT against Rbm26 | inactive: 0.376
30 | GGUACUCCUCCAUUAUCACTT against Olfr631 | inactive: -0.185
31 | GGUUCUCCUCCCAAAUUAGTT against Nptxr | inactive: 0.709
32 | GGAAUCCUUUAUGGUUUUCTT against Pald1 | inactive: 1.9
33 | CCUUUAUAACUGUGGUUGGTT against Vmn1r209 | inactive: 0.628
34 | CGUUCACUUUUGAAAACGUTT against Bysl | inactive: 0.38
35 | GGCAUUUAUGUCGAACAAGTT against Mbtd1 | inactive: -0.616
36 | GGCGACAGUUGUUUUUGUGTT against Nlrp4b | inactive: -0.588
37 | GCUUAUCCAGUGUAUUGUGTT against Amfr | inactive: -0.0874
38 | GCGUAUGCUUUUGUGCACATT against Anapc7 | inactive: 0.831
39 | GGAGAAUUGCCUAUUUGAATT against Cdhr4 | inactive: -0.0667
40 | GGUAACCCUUACAGAUAUGTT against 4921507P07Rik | inactive: 1.3
41 | CGCCCUAUACCGAUACUUUTT against Kcnk5 | inactive: 0.00385
42 | GGAUUUUAGUGAAUUCCAUTT against Asah1 | inactive: 0.0675
43 | GGUGUGCGCAGCAUCAAGATT against Guk1 | inactive: 0.146
44 | GGAACUACCUUGUAAAAUUTT against Rbp7 | inactive: -1.27

Row | Sequence | z-score
45 | GCUUAUCCUGGGAAACUUCTT against Fcnb | inactive: -1.05
46 | GGAACAGGAAGAAUUCCUATT against Tmem106b | inactive: -0.369
47 | GGCCAUAAAGUUAACAACATT against Tbx19 | inactive: -0.971
48 | GGAUGCGCUGAUAUCAGUATT against Olfr370 | inactive: 1.3
49 | GCAGUACGGGACAUCCACUTT against Wdr46 | inactive: -0.226
50 | GCACGUCCAUUCUGCUUUCTT against Smco4 | active: 2.4
51 | GGAAUGGGAUUACACCUACTT against Mymk | active: 2.67
52 | GGGAGGUGCAGAUAGGAUUTT against Csrp1 | inactive: 0.912
53 | GGUGCUAAGUUCAAAGUCGTT against Pdcd11 | inactive: -1.11
54 | GGAUCAAUCAAUGACAGUGTT against Taf8 | inactive: -0.716
55 | CCAGAGUCUUUGGUAAUGCTT against Krtap3-3 | inactive: 1.07
56 | GGAUUACAUUUGUUUUACCTT against Nim1k | inactive: -0.131
57 | CCUCUUUAGUCCUCUAAAATT against Rab15 | inactive: -0.144
58 | GCAUGAUGACAGGAAGGACTT against Olfr527 | inactive: 0.58
59 | CCUGCCUAGAUGUUUCAGCTT against Ifna13 | inactive: -0.196
60 | GGGUGAAAGAAAGAAAGAATT against Plp1 | inactive: -0.883
61 | GGCUGGCUUUGAACUCAAUTT against Zfp36 | inactive: -1.28
62 | CCAGAUGGGCCCAAUGCAUTT against Ccl7 | inactive: -1.93
63 | GCGUGUCAGGGAGUAUUACTT against Igbp1b | inactive: -0.562
64 | CCUUUAUUUCUGUGAAUCUTT against Olfr1467 | inactive: 0.631
65 | GGCCUAAGUAAACACAAAATT against Zkscan3 | inactive: 0.218
66 | GGAAGUCGAGUUGAAAUCGTT against Rida | inactive: 0.755

Row | Sequence | z-score
67 | GCACAUAGCAUCCACUCCATT against Gm4793 | active: -2.56
68 | GGGAAACAGAAGUAUCUAUTT against Ar | inactive: -0.708
69 | GGAAGAAAUGGACACCAGATT against Slc12a6 | inactive: -0.0173
70 | GGACUCCUUCCACCACAAUTT against Aifm2 | inactive: -0.2
71 | GGCCUUUUCACAACACUAUTT against Zfp958 | inactive: 0.109
72 | GGGACAAGUGAUAAAUUUGTT against Fam91a1 | inactive: -0.424
73 | GGUCGGAACUCAGUUUAUCTT against Abcg2 | inactive: 0.748
74 | CGGUUAUUGUACCUAAAGCTT against Olfr827 | inactive: -0.429
75 | GGCAAACAUUUCAAAUACATT against Tgm4 | active: 2.12
76 | GGAGAAAGAAAUCCUUCUGTT against Bag2 | inactive: 0.219
77 | GGCAUCAAGUUCUAUCUGUTT against Slc6a11 | inactive: -0.704
78 | GCCAUGUGCACUGAAUAUATT against Gfral | inactive: -1.87
79 | GGCUCUGAAUGUCACAACCTT against Il2rb | inactive: -1.33
80 | GGGACCACUGGACAUUGAATT against Cxadr | inactive: -0.00684
81 | GCUAAGAAUAGGAGUUAGATT against Ift57 | inactive: 0.419
82 | GCCCAGAUGGGUUAAUUUCTT against Fzd7 | inactive: -0.218
83 | GGAAGUCUCUGUACAUCUUTT against Chuk | inactive: -0.18
84 | GGGCACCUGACAAAAUUGCTT against Dxo | inactive: -0.503
85 | GCGACACAUAUUAACCAAATT against Wdr48 | inactive: -1.04
86 | CCCUCUAUCACGGCUACUATT against Hspb2 | inactive: -0.665
87 | CGCCAAAAGACAUUGCUCATT against Dync2li1 | inactive: -0.151
88 | GGACAGAAUUGAAAUGCCUTT against Ropn1l | active: -2.08

Row | Sequence | z-score
89 | GGGCAUGAAAUGUUCCUGUTT against Prkcg | inactive: 0.0468
90 | GCAGUGCACGGAUAACUUCTT against Ccbe1 | inactive: 0.883
91 | GGAUGGUGAGGAGAGUUAATT against Col28a1 | inactive: -0.624
92 | GGGAAAGAUAGUUAAUGGATT against Icam4 | inactive: -1.51
93 | GCAUGACAUUCCGAAAACUTT against 4921517D22Rik | inactive: -0.195
94 | GGAGAUUGAGAACACAAGCTT against Hipk2 | active: 2.37
95 | GGACUUCAGCAAAUCCAAGTT against Fam166a | inactive: 1.14
96 | CCUUCUACAAGUGGUGUUGTT against Actl7a | inactive: 1.56
97 | GGCAAAUUUCACCAUCUUATT against Dsc3 | inactive: -0.797
98 | CCUAGCAAAGCUGUUCCACTT against Vapa | inactive: 1.68
99 | GGAGCUUCUACAGUACGAGTT against 4930578I06Rik | inactive: 0.12
100 | GGAGAAGAAACUGGUGAAGTT against Etfb | inactive: -1.36
101 | GCAUGCAUGAUGGAUCUUCTT against Gabrb1 | inactive: 1.56
102 | CGACUGGAAAAAGAUUGGGTT against Ttf1 | inactive: -0.219
103 | GGCAUACACAGUCUUCAAUTT against Txk | inactive: -0.339
104 | GGUCGGUGUUUUAUCUGCUTT against Slc17a9 | active: -3.2
105 | GCUGGUACAAGGUGUUUGATT against Pqbp1 | inactive: 0.825
106 | GGAUGUCUUAGAUGUUUACTT against Mcm7 | inactive: 1.69
107 | GGUUGUGGAACUAGAAUAUTT against Wdr12 | inactive: -1.29
